Data taken from paper doi:10.1101/046789.
Results are given in words; binding and its absence hold for the method and conditions named. Binding calls can cover weak binding; strength is not graded here.

Target: T1, Human Bcl10 (human) (UniProt O95999)
T1 sequence: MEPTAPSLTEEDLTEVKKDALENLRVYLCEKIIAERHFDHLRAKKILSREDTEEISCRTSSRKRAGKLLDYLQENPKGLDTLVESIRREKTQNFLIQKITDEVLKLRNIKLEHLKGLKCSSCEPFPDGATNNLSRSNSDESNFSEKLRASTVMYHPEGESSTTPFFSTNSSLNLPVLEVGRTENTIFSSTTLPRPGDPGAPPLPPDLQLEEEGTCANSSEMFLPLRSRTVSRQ
Assay: two-hybrid

Substance | binding
N. vectensis type 1 paracaspase paralog “A” | no binding
N. vectensis type 1 paracaspase paralog “B” | binds
